{
  "source": "paper doi:10.1101/383638",
  "binders": {"B1": {"name": "P2X1 (hit of the BiFC screen of human targets) (receptor, UniProt P51575 1-399)", "chain": "MARRFQEELAAFLFEYDTPRMVLVRNKKVGVIFRLIQLVVLVYVIGWVFLYEKGYQTSSGLISSVSVKLKGLAVTQLPGLGPQVWDVADYVFPAQGDNSFVVMTNFIVTPKQTQGYCAEHPEGGICKEDSGCTPGKAKRKAQGIRTGKCVAFNDTVKTCEIFGWCPVEVDDDIPRPALLREAENFTLFIKNSISFPRFKVNRRNLVEEVNAAHMKTCLFHKTLHPLCPVFQLGYVVQESGQNFSTLAEKGGVVGITIDWHCDLDWHVRHCRPIYEFHGLYEEKNLSPGFNFRFARHFVENGTNYRHLFKVFGIRFDILVDGKAGKFDIIPTMTTIGSGIGIFGVATVLCDLLLLHILPKRHYYKQKKFKYAEDMGPGAAERDLAATSSTLGLQENMRTS"}, "B2": {"name": "ROP18 from pECFP-N1-ROP18 (FRET construct) (protein, UniProt Q2PAY2 1-554)", "chain": "MFSVQRPPLTRTVVRMGLATLLPKTACLAGLNVALVFLLFQVQDGTGITLGPSKLDSKPTSLDSQQHVADKRWLATVGHYKHLAGATESTRDVSLLEERAQHRVNAQETNQRRTIFQRLLNLLRRRERDGEVSGSAADSSSRPRLSVRQRLAQLWRRAKSLFKRGIRRYFPQGRNRQRSLRAQRRRSELVFEKADSGCVIGKRILAHMQEQIGQPQALENSERLDRILTVAAWPPDVPKRFVSVTTGETRTLVRGAPLGSGGFATVYEATDVETNEELAVKVFMSEKEPTDETMLDLQRESSCYRNFSLAKTAKDAQESCRFMVPSDVVMLEGQPASTEVVIGLTTRWVPNYFLLMMRAEADMSKVISWVFGDASVNKSEFGLVVRMYLSSQAIKLVANVQAQGIVHTDIKPANFLLLKDGRLFLGDFGTYRINNSVGRAIGTPGYEPPERPFQATGITYTFPTDAWQLGITLYCIWCKERPTPADGIWDYLHFADCPSTPELVQDLIRSLLNRDPQKRMLPLQALETAAFKEMDSVVKGAAQNFEQQEHLHTE"}, "B3": {"name": "Flag-tagged TgROP18 (pcDNA3.1(+)-ROP18-3×Flag) (protein, UniProt Q2PAY2 1-554)", "chain": "B2 chain"}},
  "key": {"[1]": {"molecular_target": "T1, TgROP18 of RH strain (bait of the BiFC screen) (Toxoplasma gondii (RH strain, type I)) (UniProt Q2PAY2)", "T1 sequence": "B2 chain", "assay": "split reporter"}, "[2]": {"molecular_target": "T2, P2X1 from pEYFP-C1-P2X1 (FRET construct) (human) (UniProt P51575)", "T2 sequence": "B1 chain", "assay": "FRET or BRET"}, "[3]": {"molecular_target": "HA-tagged P2X1 with C terminal deletion (pcDNA3.1(+)-P2X1Δ339-399-HA) (human) (UniProt P51575)", "assay": "co-IP"}, "[4]": {"molecular_target": "T3, HA-tagged full-length P2X1 (pcDNA3.1(+)-P2X1-HA) (human) (UniProt P51575)", "T3 sequence": "B1 chain", "assay": "co-IP"}},
  "note": "Results are given in words; binding and its absence hold for the method and conditions named. In cells and extracts the contact can be indirect. Some binding calls cover weakened binding; strength is not graded here. For some of these results: Where a sequence is shown, tags or fusion partners need not be part of it.",
  "data": [
    {"binder": "B1", "values": [
      {"measurement": "binding", "setting": "[1]", "result": "binds"}
    ]},
    {"binder": "B2", "values": [
      {"measurement": "binding", "setting": "[2]", "result": "binds"}
    ]},
    {"binder": "B3", "values": [
      {"measurement": "binding", "setting": "[3]", "result": "no binding"},
      {"measurement": "binding", "setting": "[4]", "result": "binds"}
    ]}
  ]
}
